Measurements: the supplement of paper PMC12823440, “Inhibitors supercharge kinase turnover through native proteolytic circuits” (Nature, 2025)
Counter-ions that a name gives are not always drawn. This is one part of the list. The calls rarely recur for the same compound in another form.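 Kinases, fused to nanoluciferase, were expressed in K562 cells; luminescence was measured every 4 h from 2 to 18 h as percent of control (DMSO = 100%, positive control = 0%). A time point is decreased if signal falls significantly (2 sigma). Hits were called by the authors by a rule that is not shown; the count of time points alone does not decide it.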

Chains of the proteins cited; added tags and fusions are not shown. Lines headed by an entry give the natural chain unless they say otherwise; changes in a name come on top.
UniProt P50750, whole entry: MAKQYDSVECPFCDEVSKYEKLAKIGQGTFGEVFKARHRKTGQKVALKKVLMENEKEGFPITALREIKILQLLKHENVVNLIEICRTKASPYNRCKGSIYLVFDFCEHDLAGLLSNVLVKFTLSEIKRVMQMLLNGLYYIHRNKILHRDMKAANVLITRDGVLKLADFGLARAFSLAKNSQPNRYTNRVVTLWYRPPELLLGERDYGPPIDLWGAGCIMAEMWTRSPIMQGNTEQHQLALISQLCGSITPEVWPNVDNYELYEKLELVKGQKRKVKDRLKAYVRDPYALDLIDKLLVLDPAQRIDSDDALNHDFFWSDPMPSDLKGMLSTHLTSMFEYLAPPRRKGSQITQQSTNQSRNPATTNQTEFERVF
UniProt P07333, whole entry: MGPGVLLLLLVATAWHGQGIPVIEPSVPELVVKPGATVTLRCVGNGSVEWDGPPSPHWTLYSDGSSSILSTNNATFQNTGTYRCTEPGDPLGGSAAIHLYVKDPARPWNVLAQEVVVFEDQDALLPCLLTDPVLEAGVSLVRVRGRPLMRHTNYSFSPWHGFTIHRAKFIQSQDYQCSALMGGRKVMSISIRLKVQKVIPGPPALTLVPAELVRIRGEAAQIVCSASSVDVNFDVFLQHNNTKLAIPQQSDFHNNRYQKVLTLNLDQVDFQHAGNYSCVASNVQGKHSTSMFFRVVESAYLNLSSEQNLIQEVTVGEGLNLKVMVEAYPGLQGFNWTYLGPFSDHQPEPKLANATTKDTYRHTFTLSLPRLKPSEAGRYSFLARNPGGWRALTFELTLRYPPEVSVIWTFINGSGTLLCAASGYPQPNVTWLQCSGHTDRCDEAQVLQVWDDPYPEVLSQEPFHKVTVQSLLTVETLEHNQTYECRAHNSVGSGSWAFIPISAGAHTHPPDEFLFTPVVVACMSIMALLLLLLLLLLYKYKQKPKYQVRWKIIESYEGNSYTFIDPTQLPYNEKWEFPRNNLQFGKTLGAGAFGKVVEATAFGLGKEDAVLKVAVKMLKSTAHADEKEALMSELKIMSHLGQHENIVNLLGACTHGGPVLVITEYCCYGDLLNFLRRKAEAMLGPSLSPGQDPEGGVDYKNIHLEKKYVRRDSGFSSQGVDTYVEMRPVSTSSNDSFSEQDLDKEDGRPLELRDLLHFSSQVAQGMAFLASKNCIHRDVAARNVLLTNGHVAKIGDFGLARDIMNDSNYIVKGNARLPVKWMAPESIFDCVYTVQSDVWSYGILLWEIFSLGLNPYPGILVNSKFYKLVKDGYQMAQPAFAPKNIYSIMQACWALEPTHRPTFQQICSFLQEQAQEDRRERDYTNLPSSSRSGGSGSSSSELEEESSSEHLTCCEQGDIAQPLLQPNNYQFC
UniProt P41240: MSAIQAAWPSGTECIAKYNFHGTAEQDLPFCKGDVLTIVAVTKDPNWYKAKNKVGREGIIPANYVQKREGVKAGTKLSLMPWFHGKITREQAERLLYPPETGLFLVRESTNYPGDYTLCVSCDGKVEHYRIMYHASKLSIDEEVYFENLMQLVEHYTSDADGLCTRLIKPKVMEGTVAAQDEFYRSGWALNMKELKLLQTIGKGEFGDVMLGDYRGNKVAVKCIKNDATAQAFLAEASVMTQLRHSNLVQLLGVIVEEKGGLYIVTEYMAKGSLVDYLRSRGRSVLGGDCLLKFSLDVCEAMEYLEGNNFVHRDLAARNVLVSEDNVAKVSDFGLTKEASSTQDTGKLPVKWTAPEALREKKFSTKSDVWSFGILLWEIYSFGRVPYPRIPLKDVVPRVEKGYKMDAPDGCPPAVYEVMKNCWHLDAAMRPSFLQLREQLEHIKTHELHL
UniProt P48729: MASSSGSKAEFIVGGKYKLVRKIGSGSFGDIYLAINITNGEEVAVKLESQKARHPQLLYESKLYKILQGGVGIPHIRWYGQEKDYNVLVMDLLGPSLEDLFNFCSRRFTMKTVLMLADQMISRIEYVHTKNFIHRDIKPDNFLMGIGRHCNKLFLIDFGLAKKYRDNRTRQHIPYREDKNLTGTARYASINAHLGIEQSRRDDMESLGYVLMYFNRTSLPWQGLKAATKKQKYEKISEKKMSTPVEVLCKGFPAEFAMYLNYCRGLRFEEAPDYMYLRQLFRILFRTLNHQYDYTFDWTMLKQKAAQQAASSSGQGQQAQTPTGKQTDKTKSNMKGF
UniProt Q08345: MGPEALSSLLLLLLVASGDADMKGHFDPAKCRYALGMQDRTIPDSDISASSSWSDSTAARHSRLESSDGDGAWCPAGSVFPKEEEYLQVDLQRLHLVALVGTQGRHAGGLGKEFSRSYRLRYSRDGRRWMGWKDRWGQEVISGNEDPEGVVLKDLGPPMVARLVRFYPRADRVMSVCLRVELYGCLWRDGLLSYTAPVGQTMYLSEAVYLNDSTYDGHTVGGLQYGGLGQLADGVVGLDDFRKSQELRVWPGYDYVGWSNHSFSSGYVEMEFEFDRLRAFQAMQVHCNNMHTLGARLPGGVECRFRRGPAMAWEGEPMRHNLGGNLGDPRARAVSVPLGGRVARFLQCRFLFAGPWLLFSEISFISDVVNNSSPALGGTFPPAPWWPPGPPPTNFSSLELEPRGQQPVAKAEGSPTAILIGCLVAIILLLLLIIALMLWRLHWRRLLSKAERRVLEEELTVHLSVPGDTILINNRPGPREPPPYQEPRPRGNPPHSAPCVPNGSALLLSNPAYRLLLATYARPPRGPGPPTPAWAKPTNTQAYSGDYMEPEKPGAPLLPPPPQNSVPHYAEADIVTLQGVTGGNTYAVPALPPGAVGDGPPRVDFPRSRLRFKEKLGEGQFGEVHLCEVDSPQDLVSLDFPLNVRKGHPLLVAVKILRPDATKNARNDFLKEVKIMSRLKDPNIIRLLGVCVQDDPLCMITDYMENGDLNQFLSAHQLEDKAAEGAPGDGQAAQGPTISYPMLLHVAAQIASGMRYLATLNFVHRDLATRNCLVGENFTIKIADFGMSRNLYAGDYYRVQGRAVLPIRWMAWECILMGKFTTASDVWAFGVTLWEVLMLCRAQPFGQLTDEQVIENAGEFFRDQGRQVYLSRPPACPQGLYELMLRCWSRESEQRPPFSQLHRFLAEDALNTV
UniProt Q92630: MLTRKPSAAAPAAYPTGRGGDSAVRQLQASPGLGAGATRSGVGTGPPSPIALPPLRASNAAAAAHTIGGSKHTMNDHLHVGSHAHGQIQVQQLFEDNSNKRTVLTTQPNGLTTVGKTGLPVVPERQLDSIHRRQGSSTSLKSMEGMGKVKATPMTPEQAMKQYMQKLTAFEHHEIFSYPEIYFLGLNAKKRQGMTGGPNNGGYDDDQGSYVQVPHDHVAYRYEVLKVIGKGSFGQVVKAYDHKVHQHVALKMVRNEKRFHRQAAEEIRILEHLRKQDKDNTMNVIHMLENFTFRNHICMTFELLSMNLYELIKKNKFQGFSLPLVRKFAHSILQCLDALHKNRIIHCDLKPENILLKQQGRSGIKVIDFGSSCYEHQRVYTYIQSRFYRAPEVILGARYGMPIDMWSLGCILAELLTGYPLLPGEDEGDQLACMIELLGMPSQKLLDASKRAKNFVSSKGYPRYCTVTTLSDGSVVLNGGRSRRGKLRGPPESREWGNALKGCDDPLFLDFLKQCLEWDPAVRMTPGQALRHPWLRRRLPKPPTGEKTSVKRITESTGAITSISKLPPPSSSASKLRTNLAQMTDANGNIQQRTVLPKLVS
UniProt P21860, whole entry: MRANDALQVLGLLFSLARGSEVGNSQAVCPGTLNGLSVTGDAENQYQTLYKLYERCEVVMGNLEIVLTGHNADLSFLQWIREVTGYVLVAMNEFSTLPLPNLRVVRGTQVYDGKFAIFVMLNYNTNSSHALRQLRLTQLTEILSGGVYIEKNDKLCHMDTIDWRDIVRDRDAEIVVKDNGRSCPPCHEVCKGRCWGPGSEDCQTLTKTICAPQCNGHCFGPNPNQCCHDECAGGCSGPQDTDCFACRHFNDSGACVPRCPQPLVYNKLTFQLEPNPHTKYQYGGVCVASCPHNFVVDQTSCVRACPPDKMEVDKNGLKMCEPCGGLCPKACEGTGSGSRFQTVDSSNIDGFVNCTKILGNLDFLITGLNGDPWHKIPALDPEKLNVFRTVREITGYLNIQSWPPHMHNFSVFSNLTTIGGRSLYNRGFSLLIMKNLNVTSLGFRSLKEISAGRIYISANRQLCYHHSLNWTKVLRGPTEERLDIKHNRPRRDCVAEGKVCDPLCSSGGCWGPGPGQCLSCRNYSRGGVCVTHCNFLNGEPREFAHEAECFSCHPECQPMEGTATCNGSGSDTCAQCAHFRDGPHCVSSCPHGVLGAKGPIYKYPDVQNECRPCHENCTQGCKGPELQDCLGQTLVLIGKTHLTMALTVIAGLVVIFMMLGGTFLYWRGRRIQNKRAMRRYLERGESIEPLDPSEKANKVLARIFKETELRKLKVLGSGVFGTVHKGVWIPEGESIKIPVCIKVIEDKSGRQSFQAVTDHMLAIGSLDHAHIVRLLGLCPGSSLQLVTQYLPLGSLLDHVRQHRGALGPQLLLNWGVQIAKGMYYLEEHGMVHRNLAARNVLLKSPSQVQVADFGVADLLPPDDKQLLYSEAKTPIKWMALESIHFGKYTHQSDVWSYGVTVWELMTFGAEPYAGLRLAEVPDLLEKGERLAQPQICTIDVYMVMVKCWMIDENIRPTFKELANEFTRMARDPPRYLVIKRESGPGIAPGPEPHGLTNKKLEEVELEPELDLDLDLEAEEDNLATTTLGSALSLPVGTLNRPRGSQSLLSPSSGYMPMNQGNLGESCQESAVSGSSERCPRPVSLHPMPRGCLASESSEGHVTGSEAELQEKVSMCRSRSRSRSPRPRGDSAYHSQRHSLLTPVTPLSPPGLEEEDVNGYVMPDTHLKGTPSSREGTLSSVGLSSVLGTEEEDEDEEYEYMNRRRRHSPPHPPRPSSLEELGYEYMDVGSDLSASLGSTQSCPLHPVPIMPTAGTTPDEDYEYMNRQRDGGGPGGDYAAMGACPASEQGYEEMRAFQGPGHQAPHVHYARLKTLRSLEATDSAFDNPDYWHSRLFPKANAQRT
UniProt Q15303, whole entry R711C: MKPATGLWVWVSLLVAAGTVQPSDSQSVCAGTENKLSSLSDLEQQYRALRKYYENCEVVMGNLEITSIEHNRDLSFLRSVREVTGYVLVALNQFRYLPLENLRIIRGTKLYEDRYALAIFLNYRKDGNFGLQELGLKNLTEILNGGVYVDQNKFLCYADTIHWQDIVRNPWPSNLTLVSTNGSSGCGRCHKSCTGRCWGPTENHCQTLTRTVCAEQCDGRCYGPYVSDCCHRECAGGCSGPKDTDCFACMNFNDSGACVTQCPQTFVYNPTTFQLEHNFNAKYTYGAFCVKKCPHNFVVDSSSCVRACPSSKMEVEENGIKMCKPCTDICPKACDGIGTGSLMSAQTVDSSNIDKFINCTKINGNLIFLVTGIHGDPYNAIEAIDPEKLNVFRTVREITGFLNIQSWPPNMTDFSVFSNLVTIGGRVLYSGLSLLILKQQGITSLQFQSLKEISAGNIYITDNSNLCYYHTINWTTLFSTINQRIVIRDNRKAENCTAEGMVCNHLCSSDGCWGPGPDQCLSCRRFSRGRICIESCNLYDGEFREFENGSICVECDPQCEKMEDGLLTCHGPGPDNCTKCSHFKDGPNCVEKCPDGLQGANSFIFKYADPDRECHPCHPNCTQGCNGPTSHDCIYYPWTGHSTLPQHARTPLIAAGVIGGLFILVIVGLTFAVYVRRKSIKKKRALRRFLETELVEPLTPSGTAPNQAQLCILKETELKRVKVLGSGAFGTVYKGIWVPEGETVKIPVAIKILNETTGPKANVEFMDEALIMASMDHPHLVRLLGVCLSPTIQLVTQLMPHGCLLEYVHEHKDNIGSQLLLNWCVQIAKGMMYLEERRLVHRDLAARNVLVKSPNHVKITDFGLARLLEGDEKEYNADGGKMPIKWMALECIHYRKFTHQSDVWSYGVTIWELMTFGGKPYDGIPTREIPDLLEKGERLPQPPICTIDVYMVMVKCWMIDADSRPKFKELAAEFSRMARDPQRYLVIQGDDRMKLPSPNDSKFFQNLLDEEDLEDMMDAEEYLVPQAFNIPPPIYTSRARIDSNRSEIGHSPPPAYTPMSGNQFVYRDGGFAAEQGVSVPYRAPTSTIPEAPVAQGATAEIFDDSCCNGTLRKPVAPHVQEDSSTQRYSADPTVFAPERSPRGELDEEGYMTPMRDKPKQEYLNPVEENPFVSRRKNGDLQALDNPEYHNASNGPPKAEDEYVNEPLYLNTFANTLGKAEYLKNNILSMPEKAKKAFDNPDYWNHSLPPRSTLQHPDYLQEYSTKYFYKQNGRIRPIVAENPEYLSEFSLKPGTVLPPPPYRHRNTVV

Columns and labels:
Assay in all cases: kinase-Nluc reporter destabilization hit call (1 = scored as downregulated) (binary); higher = compound decreases kinase abundance
Settings in all cases: K562; 2-18 h
CDK7 = CDK7 (UniProt P50613)
CDK9 = CDK9 (UniProt P50750)
CHEK2 = CHEK2 (UniProt O96017)
CSF1R = CSF1R (UniProt P07333)
CSK = CSK (UniProt P41240)
CSNK1A1 = CSNK1A1 (UniProt P48729)
CSNK1D = CSNK1D (UniProt P48730)
DDR1 = DDR1 (UniProt Q08345)
DYRK1B = DYRK1B (UniProt Q9Y463)
DYRK2 = DYRK2 (UniProt Q92630)
EGFR = EGFR (UniProt P00533)
EGFR_G719S = EGFR_G719S (UniProt P00533)
EGFR_G719S_T790M = EGFR_G719S_T790M (UniProt P00533)
EGFR_L718V = EGFR_L718V (UniProt P00533)
EGFR_L858R = EGFR_L858R (UniProt P00533)
EGFR_L861Q = EGFR_L861Q (UniProt P00533)
EGFR_T790M = EGFR_T790M (UniProt P00533)
EPHA2 = EPHA2 (UniProt P29317)
ERBB3 = ERBB3 (UniProt P21860)
[1] = target: ERBB4_R711C (clone: ERBB4_mut) (UniProt Q15303)

Measured: kinase-Nluc reporter destabilization hit call

CC(C)CN(CC(=O)N1CCN(CC(OCc2ccc3ccccc3c2)c2ccc(Cl)cc2Cl)CC1)CC(C)C (stereo not given) [LYN-1604 (dihydrochloride)] (2.5 µM)
inactive: CDK7 = 0 | CDK9 = 0 | CHEK2 = 0 | CSF1R 0 | CSK 0 | CSNK1A1 = 0 | CSNK1D 0 | DDR1 = 0 | DYRK1B 0 | DYRK2 = 0 | EGFR 0 | EGFR_G719S 0 | EGFR_G719S_T790M 0 | EGFR_L718V 0 | EGFR_L858R 0 | EGFR_L861Q 0 | EGFR_T790M 0 | EPHA2 = 0 | ERBB3 = 0 | [1] 0

CN(C)CCN(Cc1ccc(Cl)cc1)c1ccccn1 [Chloropyramine hydrochloride] (10 µM)
inactive: CDK7 = 0 | CDK9 = 0 | CHEK2 = 0 | CSF1R 0 | CSK 0 | CSNK1A1 = 0 | CSNK1D 0 | DDR1 = 0 | DYRK1B 0 | DYRK2 = 0 | EGFR 0 | EGFR_G719S 0 | EGFR_G719S_T790M 0 | EGFR_L718V 0 | EGFR_L858R 0 | EGFR_L861Q 0 | EGFR_T790M 0 | EPHA2 = 0 | ERBB3 = 0 | [1] 0

Cc1c(CN2CCN(S(C)(=O)=O)CC2)sc2c(N3CCOCC3)nc(-c3cnc(N)nc3)nc12 (2.5 µM)
inactive: CDK7 = 0 | CDK9 = 0 | CHEK2 = 0 | CSF1R 0 | CSK 0 | CSNK1A1 = 0 | CSNK1D 0 | DDR1 = 0 | DYRK1B 0 | DYRK2 = 0 | EGFR 0 | EGFR_G719S 0 | EGFR_G719S_T790M 0 | EGFR_L718V 0 | EGFR_L858R 0 | EGFR_L861Q 0 | EGFR_T790M 0 | EPHA2 = 0 | ERBB3 = 0 | [1] 0

CC1CCc2nc(N)c(C#N)c(-c3cccnc3)c2C1 (stereo not given) (10 µM)
inactive: CDK7 = 0 | CDK9 = 0 | CHEK2 = 0 | CSF1R 0 | CSK 0 | CSNK1A1 = 0 | CSNK1D 0 | DDR1 = 0 | DYRK1B 0 | DYRK2 = 0 | EGFR 0 | EGFR_G719S 0 | EGFR_G719S_T790M 0 | EGFR_L718V 0 | EGFR_L858R 0 | EGFR_L861Q 0 | EGFR_T790M 0 | EPHA2 = 0 | ERBB3 = 0 | [1] 0

Three structures from above, arranged by molecular weight, rising.
CN(C)CCN(Cc1ccc(Cl)cc1)c1ccccn1 [Chloropyramine hydrochloride] (10 µM)
inactive: CDK7 = 0 | CDK9 = 0 | CHEK2 = 0 | CSF1R 0 | CSK 0 | CSNK1A1 = 0 | CSNK1D 0 | DDR1 = 0 | DYRK1B 0 | DYRK2 = 0 | EGFR 0 | EGFR_G719S 0 | EGFR_G719S_T790M 0 | EGFR_L718V 0 | EGFR_L858R 0 | EGFR_L861Q 0 | EGFR_T790M 0 | EPHA2 = 0 | ERBB3 = 0 | [1] 0

Cc1c(CN2CCN(S(C)(=O)=O)CC2)sc2c(N3CCOCC3)nc(-c3cnc(N)nc3)nc12 (2.5 µM)
inactive: CDK7 = 0 | CDK9 = 0 | CHEK2 = 0 | CSF1R 0 | CSK 0 | CSNK1A1 = 0 | CSNK1D 0 | DDR1 = 0 | DYRK1B 0 | DYRK2 = 0 | EGFR 0 | EGFR_G719S 0 | EGFR_G719S_T790M 0 | EGFR_L718V 0 | EGFR_L858R 0 | EGFR_L861Q 0 | EGFR_T790M 0 | EPHA2 = 0 | ERBB3 = 0 | [1] 0

CC(C)CN(CC(=O)N1CCN(CC(OCc2ccc3ccccc3c2)c2ccc(Cl)cc2Cl)CC1)CC(C)C (stereo not given) [LYN-1604 (dihydrochloride)] (2.5 µM)
inactive: CDK7 = 0 | CDK9 = 0 | CHEK2 = 0 | CSF1R 0 | CSK 0 | CSNK1A1 = 0 | CSNK1D 0 | DDR1 = 0 | DYRK1B 0 | DYRK2 = 0 | EGFR 0 | EGFR_G719S 0 | EGFR_G719S_T790M 0 | EGFR_L718V 0 | EGFR_L858R 0 | EGFR_L861Q 0 | EGFR_T790M 0 | EPHA2 = 0 | ERBB3 = 0 | [1] 0

Further records follow:

C=CC(=O)Nc1ccc(CN(C(=O)Nc2c(Cl)c(OC)cc(OC)c2Cl)c2cc(Nc3ccc(N4CCN(C)CC4)cc3)ncn2)cc1 (10 µM)
inactive: CDK7 = 0 | CDK9 = 0 | CHEK2 = 0 | CSF1R 0 | CSK 0 | CSNK1A1 = 0 | CSNK1D 0 | DDR1 = 0 | DYRK1B 0 | DYRK2 = 0 | EGFR 0 | EGFR_G719S 0 | EGFR_G719S_T790M 0 | EGFR_L718V 0 | EGFR_L858R 0 | EGFR_L861Q 0 | EGFR_T790M 0 | EPHA2 = 0 | ERBB3 = 0 | [1] 0

COc1ccc2[nH]cc(/C=C3\C(=O)Nc4ccc(NC(=O)CCN5CCCCC5)cc43)c2c1 (2.5 µM)
inactive: CDK7 = 0 | CDK9 = 0 | CHEK2 = 0 | CSF1R 0 | CSK 0 | CSNK1A1 = 0 | CSNK1D 0 | DDR1 = 0 | DYRK1B 0 | DYRK2 = 0 | EGFR 0 | EGFR_G719S 0 | EGFR_G719S_T790M 0 | EGFR_L718V 0 | EGFR_L858R 0 | EGFR_L861Q 0 | EGFR_T790M 0 | EPHA2 = 0 | ERBB3 = 0 | [1] 0

CC(=NNC(=O)c1ccc(C)c(Br)c1)c1ccc(O)cc1O [mTOR inhibitor-1] (2.5 µM)
inactive: CDK7 = 0 | CDK9 = 0 | CHEK2 = 0 | CSF1R 0 | CSK 0 | CSNK1A1 = 0 | CSNK1D 0 | DDR1 = 0 | DYRK1B 0 | DYRK2 = 0 | EGFR 0 | EGFR_G719S 0 | EGFR_G719S_T790M 0 | EGFR_L718V 0 | EGFR_L858R 0 | EGFR_L861Q 0 | EGFR_T790M 0 | EPHA2 = 0 | ERBB3 = 0 | [1] 0

Nc1cc(Nc2ccc(S(N)(=O)=O)cc2)ncn1 (10 µM)
inactive: CDK7 = 0 | CDK9 = 0 | CHEK2 = 0 | CSF1R 0 | CSK 0 | CSNK1A1 = 0 | CSNK1D 0 | DDR1 = 0 | DYRK1B 0 | DYRK2 = 0 | EGFR 0 | EGFR_G719S 0 | EGFR_G719S_T790M 0 | EGFR_L718V 0 | EGFR_L858R 0 | EGFR_L861Q 0 | EGFR_T790M 0 | EPHA2 = 0 | ERBB3 = 0 | [1] 0

Cc1cc(-c2cc(OC(=O)c3ccccc3)ccc2Cl)cc2nnc(Nc3ccc(OCCN4CCCC4)cc3)nc12 (0.5 µM)
inactive: CDK7 = 0 | CDK9 = 0 | CHEK2 = 0 | CSF1R 0 | CSK 0 | CSNK1A1 = 0 | CSNK1D 0 | DDR1 = 0 | DYRK1B 0 | DYRK2 = 0 | EGFR 0 | EGFR_G719S 0 | EGFR_G719S_T790M 0 | EGFR_L718V 0 | EGFR_L858R 0 | EGFR_L861Q 0 | EGFR_T790M 0 | EPHA2 = 0 | ERBB3 = 0 | [1] 0

Cc1csc(-c2nnc(Nc3ccc(Oc4ncccc4-c4ccnc(N)n4)cc3)c3ccccc23)c1 (2.5 µM)
inactive: CDK7 = 0 | CDK9 = 0 | CHEK2 = 0 | CSF1R 0 | CSK 0 | CSNK1A1 = 0 | CSNK1D 0 | DDR1 = 0 | DYRK1B 0 | DYRK2 = 0 | EGFR 0 | EGFR_G719S 0 | EGFR_G719S_T790M 0 | EGFR_L718V 0 | EGFR_L858R 0 | EGFR_L861Q 0 | EGFR_T790M 0 | EPHA2 = 0 | ERBB3 = 0 | [1] 0

Cn1cc(-c2ccc(CNc3cc(-c4cnc5cc(OCCCN6CCCC6)ccn45)ncn3)cc2)cn1 (10 µM)
inactive: CDK7 = 0 | CDK9 = 0 | CHEK2 = 0 | CSF1R 0 | CSK 0 | CSNK1A1 = 0 | CSNK1D 0 | DDR1 = 0 | DYRK1B 0 | DYRK2 = 0 | EGFR 0 | EGFR_G719S 0 | EGFR_G719S_T790M 0 | EGFR_L718V 0 | EGFR_L858R 0 | EGFR_L861Q 0 | EGFR_T790M 0 | EPHA2 = 0 | ERBB3 = 0 | [1] 0

Cc1ccc(S(=O)(=O)Nc2ccccc2C=Nc2ccccc2NS(=O)(=O)c2ccc(C)cc2)cc1 (10 µM)
inactive: CDK7 = 0 | CDK9 = 0 | CHEK2 = 0 | CSF1R 0 | CSK 0 | CSNK1A1 = 0 | CSNK1D 0 | DDR1 = 0 | DYRK1B 0 | DYRK2 = 0 | EGFR 0 | EGFR_G719S 0 | EGFR_G719S_T790M 0 | EGFR_L718V 0 | EGFR_L858R 0 | EGFR_L861Q 0 | EGFR_T790M 0 | EPHA2 = 0 | ERBB3 = 0 | [1] 0

OC(COc1ccc(C(F)(F)F)cc1)CN(Cc1ccccc1)Cc1ccccc1 (stereo not given) (2.5 µM)
inactive: CDK7 = 0 | CDK9 = 0 | CHEK2 = 0 | CSF1R 0 | CSK 0 | CSNK1A1 = 0 | CSNK1D 0 | DDR1 = 0 | DYRK1B 0 | DYRK2 = 0 | EGFR 0 | EGFR_G719S 0 | EGFR_G719S_T790M 0 | EGFR_L718V 0 | EGFR_L858R 0 | EGFR_L861Q 0 | EGFR_T790M 0 | EPHA2 = 0 | ERBB3 = 0 | [1] 0

CC(C)(C)c1ccc(S(=O)(=O)Nc2ccc(-n3ccnc3)cc2)cc1 (10 µM)
inactive: CDK7 = 0 | CDK9 = 0 | CHEK2 = 0 | CSF1R 0 | CSK 0 | CSNK1A1 = 0 | CSNK1D 0 | DDR1 = 0 | DYRK1B 0 | DYRK2 = 0 | EGFR 0 | EGFR_G719S 0 | EGFR_G719S_T790M 0 | EGFR_L718V 0 | EGFR_L858R 0 | EGFR_L861Q 0 | EGFR_T790M 0 | EPHA2 = 0 | ERBB3 = 0 | [1] 0

Nc1ncnc2c1c(-c1ccc(Oc3ccccc3)cc1)nn2C1CCCNC1 (racemic) (2.5 µM)
inactive: CDK7 = 0 | CDK9 = 0 | CHEK2 = 0 | CSF1R 0 | CSK 0 | CSNK1A1 = 0 | CSNK1D 0 | DDR1 = 0 | DYRK1B 0 | DYRK2 = 0 | EGFR 0 | EGFR_G719S 0 | EGFR_G719S_T790M 0 | EGFR_L718V 0 | EGFR_L858R 0 | EGFR_L861Q 0 | EGFR_T790M 0 | EPHA2 = 0 | ERBB3 = 0 | [1] 0

O=C1NC(=O)C(=Cc2ccc(-c3ccc(F)cc3)o2)S1 (stereo in doubt) (10 µM)
inactive: CDK7 = 0 | CDK9 = 0 | CHEK2 = 0 | CSF1R 0 | CSK 0 | CSNK1A1 = 0 | CSNK1D 0 | DDR1 = 0 | DYRK1B 0 | DYRK2 = 0 | EGFR 0 | EGFR_G719S 0 | EGFR_G719S_T790M 0 | EGFR_L718V 0 | EGFR_L858R 0 | EGFR_L861Q 0 | EGFR_T790M 0 | EPHA2 = 0 | ERBB3 = 0 | [1] 0

COc1ccc([C@@H]2CC(=O)c3c(O)cc(O)cc3O2)cc1O [Hesperetin] (10 µM)
inactive: CDK7 = 0 | CDK9 = 0 | CHEK2 = 0 | CSF1R 0 | CSK 0 | CSNK1A1 = 0 | CSNK1D 0 | DDR1 = 0 | DYRK1B 0 | DYRK2 = 0 | EGFR 0 | EGFR_G719S 0 | EGFR_G719S_T790M 0 | EGFR_L718V 0 | EGFR_L858R 0 | EGFR_L861Q 0 | EGFR_T790M 0 | EPHA2 = 0 | ERBB3 = 0 | [1] 0

Cc1cc2cc(Nc3ccnc(Nc4ccc5[nH]c(C)cc5c4)n3)ccc2[nH]1 (2.5 µM)
inactive: CDK7 = 0 | CDK9 = 0 | CHEK2 = 0 | CSF1R 0 | CSK 0 | CSNK1A1 = 0 | CSNK1D 0 | DDR1 = 0 | DYRK1B 0 | DYRK2 = 0 | EGFR 0 | EGFR_G719S 0 | EGFR_G719S_T790M 0 | EGFR_L718V 0 | EGFR_L858R 0 | EGFR_L861Q 0 | EGFR_T790M 0 | EPHA2 = 0 | ERBB3 = 0 | [1] 0
